Reference: PubChem BioAssay AID2685 (National Center for Advancing Translational Sciences (NCATS), 2010)
This is one part of the list. Shown are side measurements of this screen, not its main read-out; they come without a call. Most of these compounds were active or inconclusive in the main read-out, so they are no random draw. The note in brackets gives the kind of curve behind each potency; many fits are weak.

Experiment: qHTS Assay for Lipid Storage Modulators in Drosophila S3 Cells;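 on cell number change: cells counted by Cell Tracker Red CMTPX staining in the red channel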
Conditions: BODIPY lipid droplet fluorescence, 18-24 h; for cell number change: measured here: cell count max response, cells fed with added oleic acid
Method in brief: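 Drosophila S3 cells loaded with oleic acid (400 uM, as added) and compounds at several concentrations; lipid droplets imaged by 488-nm laser-scanning cytometry, 500–530 nm intensity and object ratio to cell channel. Percent activity normalized to 20 uM Triacsin C.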

[1] = measured here: cell number channel AC50, cells fed with added oleic acid
[2] = measured here: lipid fluorescence (Fed channel) AC50, cells fed with added oleic acid

SMILES | cell number change | AC50 [1] | AC50 [2]
CC1CCN(S(=O)(=O)c2ccc3[nH]c(=O)cc(C(=O)O)c3c2)CC1 | -181% | 25.9 µM [falling, partial curve] | 0.291 µM [falling, full curve, poor fit]
COc1ccc(CN2CCN(C(=O)c3ccc(S(=O)(=O)N4CCCCCC4)cc3)CC2)cc1F | 55.4% | 16.4 µM [rising, single point] | –
Brc1ccccc1C1Nc2cccc3cccc(c23)N1 | -10.4% | – | 29.1 µM [falling, single point]
CCN(CC)c1ccc(NC(=O)c2ccc(=O)[nH]c2)cc1S(=O)(=O)Nc1ccc(OC)cc1 | – | – | 6.51 µM [rising, single point]
COC(=O)c1ccc(C(=O)OC)c(NC(=O)CN2CCN(c3ccccc3)CC2)c1 | 0.503% | 0.411 µM [rising, single point] | 23.1 µM [rising, partial curve]
Cc1ccc(C)c(N2CCN(C(=O)Cn3c(=O)oc4cc(S(=O)(=O)N5CCCC5)ccc43)CC2)c1 | -5.39% | – | 6.51 µM [rising, single point]
CC(/C=N/NC(=O)c1nnn(-c2nonc2N)c1C(C)C)=C\c1ccccc1 | 7.65% | 0.0731 µM [rising, full curve, poor fit] | 23.1 µM [falling, single point]
O=C(CC1CCCC1)N1CCN(S(=O)(=O)c2ccc(F)cc2)CC1 | -10.6% | 6.51 µM [rising, single point] | 6.51 µM [rising, single point]
CC(=O)Oc1c(C)c(OC(C)=O)c2c(c1C(C)=O)OC1CC(=O)C(C(C)=O)=C(O)C21C (centres undefined) | – | – | 0.0184 µM [rising, full curve, poor fit]
Cc1cc(C)nc(NNS(=O)(=O)c2ccc(F)c(Cl)c2)n1 | 68% | 14.6 µM [rising, partial curve] | –
O=C(Nc1ccc(Cl)cc1C(=O)N1CCOCC1)c1cccc([N+](=O)[O-])c1 | 64.6% | 0.058 µM [rising, full curve] | –
O=C(CSc1ccc(Cl)cc1)NC1=NN(c2ccccc2)C(=O)C1 | 17.2% | – | –
CC(C)NC(=O)c1ccc2c(c1)nnn2C | – | – | 0.0326 µM [falling, full curve, poor fit]
Cc1cccc(NC(=O)CSc2nc(C)nc3c2c(=O)n(C)c(=O)n3C)c1 | 14.2% | – | 23.1 µM [rising, single point]
O=C(CSc1nnc(C2CC2)n1-c1ccccc1)NCCc1ccc(F)cc1 | 52.2% | 6.51 µM [rising, partial curve] | –
CN1CCN(CCc2nc3cc(NC(=O)COc4ccc(Cl)cc4)ccc3n2C)CC1 | 11.5% | – | 29.1 µM [rising, single point]
O=C(C1CCN(c2nnc(-n3cccc3)s2)CC1)N1CCOCC1 | -81.2% | 29.1 µM [falling, partial curve, poor fit] | 0.291 µM [falling, partial curve, poor fit]
CCOC(=O)N1CCN(C(=O)COc2ccc(Br)cc2)CC1 | -3.04% | – | 5.17 µM [rising, partial curve]
COc1ccc(C(=O)NC=C2C(=O)OC(C)(C)OC2=O)cc1 | -18.6% | – | 0.146 µM [falling, full curve, poor fit]

In the list so far, 10 contain sulfur.
SMILES | cell number change | AC50 [1] | AC50 [2]
CC1CCN(S(=O)(=O)c2ccc3[nH]c(=O)cc(C(=O)O)c3c2)CC1 | -181% | 25.9 µM [falling, partial curve] | 0.291 µM [falling, full curve, poor fit]
COc1ccc(CN2CCN(C(=O)c3ccc(S(=O)(=O)N4CCCCCC4)cc3)CC2)cc1F | 55.4% | 16.4 µM [rising, single point] | –
CCN(CC)c1ccc(NC(=O)c2ccc(=O)[nH]c2)cc1S(=O)(=O)Nc1ccc(OC)cc1 | – | – | 6.51 µM [rising, single point]
Cc1ccc(C)c(N2CCN(C(=O)Cn3c(=O)oc4cc(S(=O)(=O)N5CCCC5)ccc43)CC2)c1 | -5.39% | – | 6.51 µM [rising, single point]
O=C(CC1CCCC1)N1CCN(S(=O)(=O)c2ccc(F)cc2)CC1 | -10.6% | 6.51 µM [rising, single point] | 6.51 µM [rising, single point]
Cc1cc(C)nc(NNS(=O)(=O)c2ccc(F)c(Cl)c2)n1 | 68% | 14.6 µM [rising, partial curve] | –
O=C(CSc1ccc(Cl)cc1)NC1=NN(c2ccccc2)C(=O)C1 | 17.2% | – | –
Cc1cccc(NC(=O)CSc2nc(C)nc3c2c(=O)n(C)c(=O)n3C)c1 | 14.2% | – | 23.1 µM [rising, single point]
O=C(CSc1nnc(C2CC2)n1-c1ccccc1)NCCc1ccc(F)cc1 | 52.2% | 6.51 µM [rising, partial curve] | –
O=C(C1CCN(c2nnc(-n3cccc3)s2)CC1)N1CCOCC1 | -81.2% | 29.1 µM [falling, partial curve, poor fit] | 0.291 µM [falling, partial curve, poor fit]

Entries of single compounds, quoted from the list:
`CCN(CC)c1ccc(NC(=O)c2ccc(=O)[nH]c2)cc1S(=O)(=O)Nc1ccc(OC)cc1` in the list: AC50 [2]: 6.51 µM [rising, single point]
`O=C(CC1CCCC1)N1CCN(S(=O)(=O)c2ccc(F)cc2)CC1` in the list: cell number change: -10.6%; AC50 [1]: 6.51 µM [rising, single point]; AC50 [2]: 6.51 µM [rising, single point]

Continuation:

SMILES | cell number change | AC50 [1] | AC50 [2]
CC(C)c1ccc(N(CC(=O)NC2CCCCC2)C(=O)CNC(=O)c2ccco2)cc1 | 5.22% | – | 29.1 µM [falling, single point]
CCOc1cc(CNC(C)(C)CO)cc(Br)c1OCc1ccc(Cl)cc1Cl | -38.6% | 23.1 µM [falling, partial curve] | 29.1 µM [falling, single point]
CCN1C(c2ccccc2)C(C)C(=O)C(C)C1c1ccccc1 (centres undefined) | 39.6% | 9.2 µM [rising, partial curve] | –
COc1ccc(C(C)NC(=S)NCc2ccc(F)cc2)cc1 (centres undefined) | -18.8% | – | –
Cc1ccc(S(=O)(=O)N2CCN(C(=O)C3Cc4ccccc4CN3C(=O)c3ccco3)CC2)cc1 (centres undefined) | -23.5% | – | 6.51 µM [falling, partial curve, poor fit]
Cc1noc(C)c1CSc1nnc(-c2ccccc2F)n1CCc1ccccc1 | -14.7% | – | –
Cc1cc(C)c(S(C)(=O)=O)c(N(C)NC(=O)c2c(F)cccc2F)n1 | -22.4% | 0.517 µM [rising, single point] | –
CCOc1ccc2oc(-c3ccccc3)c(C(=O)N3CCN(CCO)CC3)c2c1 | – | 6.51 µM [rising, single point] | –
COc1ccc(N2CCN(C(CNC(=O)c3ccco3)c3ccco3)CC2)cc1 (centres undefined) | – | – | 2.31 µM [rising, single point]
Cc1ccc(C(=O)Nc2cccc(C(F)(F)F)c2)cc1Nc1ccccn1 | -46.8% | 20.6 µM [falling, partial curve, poor fit] | 29.1 µM [falling, single point]
CC(=O)c1cccc(NC(=S)N2CCN(S(=O)(=O)c3ccccc3)CC2)c1 | 9.48% | – | 4.61 µM [rising, single point]
CCOC(=O)CCC(NC(=O)CCC(=O)NC(CCC(=O)OCC)C(=O)OCC)C(=O)OCC (centres undefined) | -20.4% | – | –
CCN(CC(=O)NCc1ccc(Cl)cc1)C(=O)CCOc1ccccc1C | 145% | – | –
C/C(=N\NC(=O)C(=O)Nc1cccc(Cl)c1)c1ccncc1 | -14.9% | – | –
O=c1c(Cc2ccc(F)cc2)c(O)ccn1Cc1cccc(Cl)c1 | -78.9% | 25.9 µM [falling, partial curve] | –
COc1ccc(CCNC(=O)CCCOc2ccc(C)cc2)cc1OC | -50% | 0.0058 µM [falling, full curve, poor fit] | 29.1 µM [falling, single point]
CCN(Cc1ccc2c(c1)OCO2)C(=O)CSc1ncnc2sccc12 | -7.51% | – | –
Clc1ccc(Cn2ncc3c(N4CCCCC4)ncnc32)c(Cl)c1 | 61.4% | 11.6 µM [rising, partial curve, poor fit] | –
Cc1c(C(=O)OC(C)CCN(C)C)oc2ccccc12 (centres undefined) | -29.3% | 2.91 µM [falling, full curve, poor fit] | 3.26 µM [falling, full curve, poor fit]

SMILES | cell number change | AC50 [1] | AC50 [2]
CC1=C(C(=O)OC(C)C)C(/C=C/c2ccccc2)NC(=O)N1 (centres undefined) | 33.9% | 3.66 µM [rising, full curve, poor fit] | –
O=S(Cc1cc(Sc2ccccc2)nc(-c2ccccc2)n1)c1ccccc1 (centres undefined) | -16.8% | – | 6.51 µM [rising, single point]
CN(C)S(=O)(=O)c1ccc(-c2csc(N/N=C/c3ccc(O)cc3)n2)cc1 | -25% | – | 32.6 µM [falling, single point]
CCN1CCN(c2cc(C)c3cc(NC(=O)c4cc(OC)cc(OC)c4)ccc3n2)CC1 | – | 0.103 µM [rising, full curve, poor fit] | 0.13 µM [rising, full curve, poor fit]
C=C(C)CSc1nnc2n(C)c(=O)c3c4c(sc3n12)CCC4 | 10.7% | – | 1.3 µM [rising, full curve]
COc1ccc(-c2noc(-c3ccccc3C(=O)NCc3ccco3)n2)cc1OC | 156% | 0.731 µM [rising, single point] | 0.58 µM [rising, single point]
CN(C)c1ccc(-c2nnn(CC(=O)N3c4ccccc4CCc4ccccc43)n2)cc1 | -64.5% | 1.46 µM [falling, partial curve] | 3.66 µM [falling, full curve]
CCOc1cccc(C(=O)NC(=S)Nc2cccc(NC(=O)c3ccccc3Cl)c2)c1 | 10.1% | 6.51 µM [rising, single point] | 4.61 µM [falling, partial curve, poor fit]
COC(=O)c1c(NC(=S)Nc2ccc(CC(=O)O)cc2)sc(C)c1C | 2.07% | – | 0.731 µM [falling, full curve, poor fit]
Cc1ccc(S(=O)(=O)NCc2csc(-c3cccs3)n2)cc1 | 37.6% | 25.9 µM [rising, single point] | –
N#Cc1cc(Cl)c(NCC2CCCO2)cc1C#N (centres undefined) | -66.4% | 32.6 µM [falling, single point] | –
Cc1ccc(S(=O)(=O)N2CCN(C(=O)c3ccc(COc4ccccc4)o3)CC2)cc1 | -6.69% | – | 0.82 µM [rising, full curve]
COC(=O)C1=C(C)N(Cc2ccccc2)C(=NCc2cccc(C(F)(F)F)c2)N[C@H]1c1cccc(C(F)(F)F)c1 | -42.4% | 13 µM [falling, partial curve] | 20.6 µM [falling, partial curve]
COc1ccc(-n2c(SCC(=O)Nc3ccc4c(c3)OCO4)nc3c(c2=O)SCC3)cc1 | 21.6% | – | 0.146 µM [rising, full curve, poor fit]
COc1ccc(-n2c(SCC(N)=O)nnc2-c2ccco2)cc1 | -6.82% | – | 13 µM [falling, partial curve]
C/C(=N\Nc1nccnc1Cl)c1c(F)c(F)c(F)c(F)c1F | 4.25% | – | 0.731 µM [falling, full curve, poor fit]
CC(=O)c1cc(-c2ccccc2)n(CC(=O)N2CCCCC2)c1C | -50.9% | 2.06 µM [falling, full curve] | 1.46 µM [falling, full curve]
CC1CCN(C(=O)CSc2nnc(-c3ccco3)o2)CC1 | 0.552% | – | 0.00461 µM [rising, full curve, poor fit]
